This assay concerns Pseudomonas aeruginosa. As to conditions: Concentration 32 ug.mL-1, ASSAY_TEST Inhibition of Bacterial Growth, detection method Absorption (OD600), MEDIA CAMHB, plate type 384well, NBS, CORNING #3640, time 18 hr.

Several values for one entry are separate records, joined by “and”; a condition that tells them apart may be missing. Equal values may be shown once. This is one part of the list. Entries with a potency or affinity are not part of this list.

In the case of `C=C1CC(COC)(COC)C[C@@H]1[C@@H](Nc1ccc(Br)cc1)c1ccccc1`, the Inhibition is recorded as 15.11%. Turning to `C[C@]12CC[C@@](C3CC3)(O1)[C@H]1C=C[C@H](OC(=O)c3ccccc3)[C@H]12`, where the note is “32 ug/mL”, the Inhibition was 8.14% and 15.07%. In the case of `C[C@@H]1CC(=O)C=C2C(=O)[C@@H]3[C@@H](C3(C)C)[C@]21C`, the Inhibition is reported as 11.33%. In the case of `C[C@]12CC[C@@](c3ccc4ccccc4c3)(O1)[C@H]1C=C[C@H](OC(=O)c3ccccc3)[C@H]12`, the Inhibition was 20.08%.

Consider `C[C@]12CC[C@@](C3CCCC3)(O1)[C@H]1C=C[C@H](OC(=O)c3ccccc3)[C@H]12`, for which the Inhibition worked out at 5.09%. As for `C=C1CC(C(=O)OC)(C(=O)OC)C[C@@H]1[C@H](c1ccccc1)n1ccc2ccccc21`, the Inhibition amounted to 7.04%. Consider `C=C1CC(C(=O)OC)(C(=O)OC)C[C@@H]1[C@H](c1ccccc1)n1ccc2ccc(Cl)cc21`, for which the Inhibition is given as 21.99%.

On to `C[C@]12CC[C@@](C)(O1)[C@H]1C=C[C@H](OC(=O)c3ccccc3)[C@H]12`, for which the Inhibition amounted to 6.63%. Regarding `C[C@]12CC[C@@](c3ccc(C(F)(F)F)cc3)(O1)[C@H]1C=C[C@H](OC(=O)c3ccccc3)[C@H]12`, where the note is “32 ug/mL”, the Inhibition was 13.15% and 6.93%.

Regarding `C=C1CC(C(=O)OC)(C(=O)OC)C[C@@H]1[C@@H](NS(=O)(=O)c1ccc(C)cc1)c1ccccc1`, the Inhibition worked out at 15.93%. On the same count and under the same terms, the value for `C[C@]12CC[C@@H](O1)[C@H]1C=C[C@H](OC(=O)c3ccccc3)[C@H]12` was 10.45%; that for `C=C1CC(COCc2ccc(OC)cc2)(COCc2ccc(OC)cc2)C[C@@H]1[C@@H](Nc1ccc(Br)cc1)c1ccccc1` was -12.65%; that for `C=C1CC2(COC(C)(C)OC2)C[C@@H]1[C@@H](Nc1ccc(Br)cc1)c1ccccc1` was 26.45%.

The Inhibition is the drop in the measured response relative to a control, in per cent.

Values taken from ChEMBL document CHEMBL4513151, “CO-ADD screening of Institut Català d'Investigació Química (Spain) compounds”.
